Measurements reported in PubChem BioAssay AID1259425 (University of Nebraska Medical Center, 2018)

Assay: 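Compare each knockdown with KSR1 silencing using changes in marker transcripts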 (primary screen)
System: HCT116 human colon cancer cells
Reagent: siRNA pool against human genes, 50 nM siRNA
Measured: 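After 50 nM siRNA pool, branched-DNA assay measures six marker transcripts per well, minus blank, normalised to the geometric mean of two housekeeping transcripts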
Direction: BNIP3L mRNA: higher = more BNIP3L transcript after knockdown; NDRG1 mRNA: higher = more NDRG1 transcript after knockdown
Shown is a random part of about 14,000 deposited reagents. Further read-outs or replicates are left out here. Not stated in the record: the time to read-out.

NUP93 (nucleoporin 93) | BNIP3L mRNA, set 1: 0.131; NDRG1 mRNA, set 1: 0.128
PRDM12 (PR/SET domain 12) | BNIP3L mRNA, set 1: 0.101; NDRG1 mRNA, set 1: 0.249
TBC1D17 (TBC1 domain family member 17) | BNIP3L mRNA, set 1: 0.167; NDRG1 mRNA, set 1: 2.68
DLG3 (discs large MAGUK scaffold protein 3) | BNIP3L mRNA, set 1: 0.0727; NDRG1 mRNA, set 1: 0.231
TNFRSF1B (TNF receptor superfamily member 1B) | BNIP3L mRNA, set 1: 0.107; NDRG1 mRNA, set 1: 0.339
FBF1 (Fas binding factor 1) | BNIP3L mRNA, set 1: 0.243; NDRG1 mRNA, set 1: 0.485
GABBR2 (gamma-aminobutyric acid type B receptor subunit 2) | BNIP3L mRNA, set 1: 0.208; NDRG1 mRNA, set 1: 0.259
AKR7L (aldo-keto reductase family 7 like (gene/pseudogene)) | BNIP3L mRNA, set 1: 0.132; NDRG1 mRNA, set 1: 0.55
MTX1 (metaxin 1) | BNIP3L mRNA, set 1: 0.087; NDRG1 mRNA, set 1: 0.109
PCDH18 (protocadherin 18) | BNIP3L mRNA, set 1: 0.149; NDRG1 mRNA, set 1: 0.106
BAGE3 (BAGE family member 3) | BNIP3L mRNA, set 1: 0.205; NDRG1 mRNA, set 1: 0.301
SLC22A4 | BNIP3L mRNA, set 1: 0.126; NDRG1 mRNA, set 1: 0.13
GPRASP1 (G protein-coupled receptor associated sorting protein 1) | BNIP3L mRNA, set 1: 0.136; NDRG1 mRNA, set 1: 0.147
AGA (aspartylglucosaminidase) | BNIP3L mRNA, set 1: 0.114; NDRG1 mRNA, set 1: 0.186
POU5F1 (POU class 5 homeobox 1) | BNIP3L mRNA, set 1: 0.11; NDRG1 mRNA, set 1: 0.173
IK (IK cytokine) | BNIP3L mRNA, set 1: 0.238; NDRG1 mRNA, set 1: 0.421
SEMA6A (semaphorin 6A) | BNIP3L mRNA, set 1: 0.121; NDRG1 mRNA, set 1: 0.195
ZNF365 (zinc finger protein 365) | BNIP3L mRNA, set 1: 0.0734; NDRG1 mRNA, set 1: 0.166
GNPAT (glyceronephosphate O-acyltransferase) | BNIP3L mRNA, set 1: 0.0566; NDRG1 mRNA, set 1: 0.197
